The amount applied is not stated for every result.
Columns and labels:
[1] = test system: TFG-MET allograft tumors; experiment: RNA-sequencing, differential expression and GSEA of TFG-MET allograft tumors; assay type: in vivo, mouse
Protocol: Error bars display standard error of mean, statistical significance was determined using t-test analysis. (****;p<0.0001, ***;p<0.001, **;p<0.01, *;p<0.05). […] Each dot represents an individual replicate. Error bars display standard error of the mean.
Each dot represents one gene.

[2] = test system: TRIM24-MET-r cells; experiment: RNA-sequencing, differential expression and GSEA of TRIM24-MET-r cells, 4h in vitro treatment at EC90; assay type: cell-based, human; conditions: GSEA CRI vs DMSO
[3] = C5 GO BP, GOBP_NCRNA_METABOLIC_PROCESS
[4] = C5 GO BP, GOBP_NCRNA_PROCESSING
[5] = C5 GO BP, GOBP_RIBONUCLEOPROTEIN_COMPLEX_BIOGENESIS
[6] = C5 GO BP, GOBP_RIBOSOME_BIOGENESIS
[7] = C5 GO BP, GOBP_RRNA_METABOLIC_PROCESS
[8] = C5 GO CC, GOCC_ORGANELLE_INNER_MEMBRANE
[9] = C5 GO CC, GOCC_RIBONUCLEOPROTEIN_COMPLEX
[10] = C5 GO CC, GOCC_SMALL_SUBUNIT_PROCESSOME

Q: Which “NES, GOMF_ACYL_COA_BINDING” value ([1]; CAP v Veh, GSEA C5 GO MF, padj 0.961634) does the source give for `CNC(=O)c1ccc(-c2cnc3ncc(Cc4ccc5ncccc5c4)n3n2)cc1F` [Capmatinib] here?
A: Its value is -0.67.

Q: What about the “NES, GOMF_EXTRACELLULAR_LIGAND_GATED_ION_CHANNEL_ACTIVITY” value ([1]; CAP v Veh, GSEA C5 GO MF, padj 0.963266) of the same molecule?
A: The value was 0.7829.

Q: And the “NES, GOMF_LIGAND_GATED_ION_CHANNEL_ACTIVITY” value ([1]; CAP v Veh, GSEA C5 GO MF, padj 0.981818)?
A: The value was 0.7437.

Q: What about the “ES, GOMF_AMIDE_BINDING” value ([1]; CAP v Veh, GSEA C5 GO MF, padj 0.988063) of the same molecule?
A: Its value is 0.1423.

Q: What about the “ES, GOMF_STRUCTURAL_CONSTITUENT_OF_RIBOSOME” value ([1]; CAP v Veh, GSEA C5 GO MF, padj 0.992017) of the same molecule?
A: The value was -0.1491.

Q: And the “ES GOCC_ENDOSOME” value ([1]; GSEA CAP.v.Veh, C5 GO CC)?
A: The value was 0.2317.

Q: What about the “ES GOCC_INTRINSIC_COMPONENT_OF_POSTSYNAPTIC_MEMBRANE” value ([1]; GSEA CAP.v.Veh, C5 GO CC) of the same molecule?
A: The value was -0.1574.

Q: And the “NES GOCC_NEURON_TO_NEURON_SYNAPSE” value ([1]; GSEA CAP.v.Veh, C5 GO CC)?
A: The value was 0.7187.

Q: And the “NES GOCC_SOMATODENDRITIC_COMPARTMENT” value ([1]; GSEA CAP.v.Veh, C5 GO CC)?
A: Its value is -0.6562.

Q: How did the ES [2, 3] turn out when `C[C@@H](Oc1cc(-c2cnn(C3CCNCC3)c2)cnc1N)c1c(Cl)ccc(F)c1Cl` [Crizotinib] was run?
A: Its ES is -0.5781.

Q: What about the NES [2, 3] of the same molecule?
A: The NES was -2.393.

Q: And the ES [2, 4]?
A: Its ES is -0.6028.

Q: And the NES [2, 4]?
A: Its NES is -2.457.

Q: And the ES [2, 5]?
A: Its ES is -0.5835.

Q: And the NES [2, 5]?
A: The NES was -2.418.

Q: What about the ES [2, 6] of the same molecule?
A: Its ES is -0.6641.

Q: What about the NES [2, 6] of the same molecule?
A: Its NES is -2.6548.

Q: And the ES [2, 7]?
A: Its ES is -0.6637.

Q: And the NES [2, 7]?
A: The NES was -2.5859.

Q: What about the ES ([2]; C5 GO CC, GOCC_NUCLEOLUS) of the same molecule?
A: The ES was -0.4309.

Q: What about the NES ([2]; C5 GO CC, GOCC_NUCLEOLUS) of the same molecule?
A: The NES was -1.875.

Q: What about the ES [2, 8] of the same molecule?
A: Its ES is -0.4185.

Q: What about the NES [2, 8] of the same molecule?
A: The NES was -1.742.

Q: And the ES ([2]; C5 GO CC, GOCC_PRERIBOSOME)?
A: The ES was -0.7971.

Q: What about the NES ([2]; C5 GO CC, GOCC_PRERIBOSOME) of the same molecule?
A: Its NES is -2.659.

Q: What about the ES [2, 9] of the same molecule?
A: The ES was -0.4388.

Q: What about the NES [2, 9] of the same molecule?
A: Its NES is -1.87.

Q: And the ES [2, 10]?
A: The ES was -0.8445.

Q: What about the NES [2, 10] of the same molecule?
A: The NES was -2.4781.
